# Assay results

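Control-channel Italica luciferase signal in doxycycline-induced 293T-iDUX4 cells, given as percent activity after a 24-hour treatment.
The test concentration is not given here.
Percent change in the Italica control signal; more negative values mean stronger inhibition, which points to nonspecific, tet-on or cytotoxic effects.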

Values are in %.
Common to all entries: measured here: Italica tet-on control reporter.
This is a side read-out of the assay, for part of the compounds, not drawn at random.

SMILES	activity change (%)
COc1ccc2c3c([nH]c2c1)[C@H](CO)N(Cc1ccccc1)CC31CN(C)C1	0.0767
COc1ccc(C#Cc2ccc3c(c2)[C@H]2[C@H](CCN2S(=O)(=O)c2ccccc2C)[C@@H](CO)N3C)cc1	-3.505
O=C(c1ccc2c(c1)OCO2)N1CC(=O)N2[C@H](C1)[C@@H](c1ccc(C#Cc3ccccc3)cc1)[C@@H]2CO	-41.6
CCCNC(=O)N1CC(=O)N2[C@@H](CO)[C@H](c3ccc(C#Cc4ccccc4)cc3)[C@@H]2C1	-6.908
CO[C@H]1CN(C)C(=O)c2cc(NC(=O)C3CC3)ccc2OC[C@H](C)N(Cc2cc(F)ccc2F)C[C@@H]1C	-9.652
O=C(C[C@@H]1C[C@H]2c3cc(NS(=O)(=O)c4ccc(F)cc4)ccc3O[C@H]2[C@@H](CO)O1)NCc1ccc(Cl)cc1	-13.59
COc1cccc(-c2ccc3c(c2)[C@@H]2[C@@H](CCN2C(=O)c2ccc(F)cc2)[C@@H](CO)N3)c1	-56.48
CN1c2ccc(C#Cc3cccnc3)cc2[C@@H]2[C@@H](CCN2S(=O)(=O)c2ccccc2)[C@H]1CO	-33.68
Cc1cccc(S(=O)(=O)N2CC[C@@H]3[C@H](CO)Nc4ccc(-c5ccccc5F)cc4[C@@H]32)c1	-30.39
COc1cccc(-c2ccc3c(c2)[C@H]2[C@H](CCN2Cc2ccccc2OC)[C@H](CO)N3)c1	-20.44
O=C(C[C@H]1CC[C@@H]2[C@H](COC[C@H](O)CN2Cc2ccc3c(c2)OCO3)O1)Nc1ccc(-c2ccccc2)cc1	-33.1
COc1ccc(C#Cc2ccc([C@H]3[C@H]4CN(C(=O)Cc5cccnc5)CCCCN4[C@H]3CO)cc2)cc1	-28.18
O=C(Cc1cccnc1)N1CCCCN2[C@@H](CO)[C@@H](c3ccc(C#CC4CCCC4)cc3)[C@@H]2C1	5.35
COc1ccc2c3c([nH]c2c1)[C@@H](CO)N(C(=O)Nc1ccc(F)cc1)CC31CN(S(=O)(=O)c2ccc(C)cc2)C1	-56.15
O=C(Nc1cc(F)ccc1F)N1CC(=O)N2[C@H](CO)[C@H](c3ccc(C#CC4CCCCC4)cc3)[C@@H]2C1	-1.63
Cc1ccc(-c2ccc([C@H]3[C@H]4CN(S(=O)(=O)c5ccccc5C)CCCCN4[C@H]3CO)cc2)cc1	-27.28
O=C(c1ccc2c(c1)OCO2)N1CC2(C1)[C@H](c1ccccc1)[C@H](CO)N2C(=O)C1CCCC1	-31.55
OC[C@H]1Nc2ccc(C#Cc3ccc(F)cc3)cc2[C@H]2[C@@H]1CCN2Cc1nccs1	-3.236
Cc1cccc(S(=O)(=O)N2CCCCN3[C@H](C2)[C@H](c2ccc(C#C[C@H](C)O)cc2)[C@@H]3CO)c1	-7.972
C[C@H](NC(=O)N(C)C[C@@H]1OCc2ccccc2-c2c(n(C)c3ccccc23)C(=O)N([C@@H](C)CO)C[C@@H]1C)c1ccccc1	-57.45

The first 2 entries again:

- COc1ccc2c3c([nH]c2c1)[C@H](CO)N(Cc1ccccc1)CC31CN(C)C1 : activity change 0.0767%
- COc1ccc(C#Cc2ccc3c(c2)[C@H]2[C@H](CCN2S(=O)(=O)c2ccccc2C)[C@@H](CO)N3C)cc1 : activity change -3.505%

Source: PubChem BioAssay AID1224904 (Broad Institute, 2016).